Experimental data: PubChem BioAssay AID1259254 (NCATS, 2017)

- Aim: 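Gene knock-downs that lead to re-replication, shown by excess G2 DNA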 (primary screen)
- Cell system: human HCT116 colorectal cancer cells
- Reagent: single siRNA against human genes
- Time to read-out: 3 days
- Detection: 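Nuclei stained with Hoechst and imaged; cell-cycle phase assigned by DNA content; G2 share scaled per plate, non-targeting siRNA 0%, GMNN siRNA 100%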
- Reading the numbers: G2 robust z-score and G2 cells, % of GMNN control: higher = more G2 cells, more excess DNA replication; raw share of cells in G2: higher = larger share of cells with G2 DNA content
- Hit rule: 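Active siRNAs have a G2 robust z of 5 or more median absolute deviations over the median, which in these data means about 38% or higher of GMNN control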
This is one part, drawn at random, of about 59,000 deposited reagents. In the full data, about 1,550 (2.6%) are marked active. 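G2 share is only a proxy for re-replication; each gene was hit by three separate siRNAs, and active genes were retested.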 The raw values are shown without normalisation. The numbers tell different reagents against one gene apart. No sequences are given here. The record does not give: the amount of reagent.

no.	Gene	reagent no.	G2 robust z-score	G2 cells, % of GMNN control	raw share of cells in G2 (%)	Outcome
1	STAC2	1	-0.93	-3.58	2.76	inactive
2	STAC2	2	1.22	11.6	8.31	inactive
3	STAC2	3	4.16	32.2	17.2	inactive
4	HRAS	1	-0.0275	2.77	6.74	inactive
5	HRAS	2	0.0655	3.43	6.29	inactive
6	HRAS	3	1.22	11.5	8.43	inactive
7	ARNT2	1	-0.461	-0.277	3.43	inactive
8	ARNT2	2	-0.988	-3.99	4.21	inactive
9	ARNT2	3	-0.492	-0.496	3.13	inactive
10	SNRPA	1	-0.963	-3.81	2.7	inactive
11	SNRPA	2	0.312	5.16	7.42	inactive
12	SNRPA	3	0.402	5.79	6.53	inactive
13	GTF2H4	1	1.99	17	10.2	inactive
14	GTF2H4	2	2.38	19.7	14.1	inactive
15	GTF2H4	3	2.53	20.8	10.7	inactive
16	APLP2	1	0.288	4.99	7.64	inactive
17	APLP2	2	0.178	4.22	5.63	inactive
18	APLP2	3	-0.681	-1.82	2.81	inactive
19	MLEC	1	2.32	19.3	14.1	inactive
20	MLEC	2	-0.395	0.192	4.02	inactive
21	MLEC	3	-0.392	0.209	3.48	inactive
22	GRPR	1	0.247	4.7	7.52	inactive
23	GRPR	2	0.0765	3.51	5.74	inactive
24	GRPR	3	-0.441	-0.137	3.23	inactive
25	FLG2	1	-0.203	1.54	5.29	inactive
26	FLG2	2	-0.72	-2.1	3.05	inactive
27	FLG2	3	-0.868	-3.14	2.04	inactive
28	TRIM53BP	1	-0.0748	2.44	4.7	inactive
29	TRIM53BP	2	-0.652	-1.62	2.87	inactive
30	TRIM53BP	3	-0.341	0.565	5.03	inactive
31	BBC3	1	5.08	38.7	18.6	active
32	BBC3	2	0.806	8.64	7.81	inactive
33	BBC3	3	9.29	68.3	24.8	active
34	C10orf71	1	0.396	5.75	6.4	inactive
35	C10orf71	2	0.212	4.46	4.66	inactive
36	C10orf71	3	0.152	4.03	3	inactive
37	TMEM164	1	4.71	36.1	16.1	inactive
38	TMEM164	2	2.59	21.2	9.75	inactive
39	TMEM164	3	-0.82	-2.8	1.55	inactive
40	LAMP3	1	-0.138	2	3.88	inactive
41	LAMP3	2	0.944	9.61	7.53	inactive
42	LAMP3	3	1.08	10.6	8.55	inactive
43	LAMP5	1	7.26	54	24.7	active
44	LAMP5	2	0.289	5	6.11	inactive
45	LAMP5	3	0.619	7.32	5.86	inactive
46	SPAG6	1	-0.25	1.21	5.24	inactive
47	SPAG6	2	4.42	34	18.1	inactive
48	SPAG6	3	0.83	8.81	6.21	inactive
49	ZNF395	1	-1.02	-4.19	1.31	inactive
50	ZNF395	2	-0.653	-1.63	5.17	inactive
51	ZNF395	3	0.522	6.64	5.72	inactive
52	CENPE	1	0.683	7.77	7.83	inactive
53	CENPE	2	1.33	12.3	8.33	inactive
54	CENPE	3	4.41	34	17.1	inactive
55	IL27RA	1	8.13	60.2	27.9	active
56	IL27RA	2	3.76	29.5	16.7	inactive
57	IL27RA	3	-0.407	0.105	3.24	inactive
58	TMEM117	1	-0.0917	2.32	4.88	inactive
59	TMEM117	2	4.51	34.7	13.8	inactive
60	TMEM117	3	-0.794	-2.62	1.61	inactive
61	HLA-A	1	-0.717	-2.08	3.87	inactive
62	HLA-A	2	0.958	9.71	6.63	inactive
63	HLA-A	3	-0.236	1.3	3.98	inactive
64	MSH2	1	-0.179	1.71	3.76	inactive
65	MSH2	2	-0.914	-3.47	4.02	inactive
66	MSH2	3	-0.538	-0.817	5.15	inactive
67	OSBPL5	1	-0.415	0.0452	5.69	inactive
68	OSBPL5	2	-0.748	-2.29	3.98	inactive
69	OSBPL5	3	-0.621	-1.4	3.95	inactive

Look-ups from the entries so far.
ARNT2 #3, G2 cells, % of GMNN control = -0.496
ZNF395 #2, raw share of cells in G2 (%): 5.17
LAMP3 #2, G2 robust z-score → 0.944
